Binding data for three molecules are collected here from article doi:10.1101/2022.09.26.509508.

No constants are given. Whether binding was seen depends on the method and setting. Binding calls can cover weak binding; strength is not graded here. For part of these data: Sequences can lack the tags named with a protein.

The target of assay [1] is T1, LIN-42b (LIN-42^Period isoform, two-hybrid bait) (C. elegans) (UniProt Q65ZG8).
T1 sequence: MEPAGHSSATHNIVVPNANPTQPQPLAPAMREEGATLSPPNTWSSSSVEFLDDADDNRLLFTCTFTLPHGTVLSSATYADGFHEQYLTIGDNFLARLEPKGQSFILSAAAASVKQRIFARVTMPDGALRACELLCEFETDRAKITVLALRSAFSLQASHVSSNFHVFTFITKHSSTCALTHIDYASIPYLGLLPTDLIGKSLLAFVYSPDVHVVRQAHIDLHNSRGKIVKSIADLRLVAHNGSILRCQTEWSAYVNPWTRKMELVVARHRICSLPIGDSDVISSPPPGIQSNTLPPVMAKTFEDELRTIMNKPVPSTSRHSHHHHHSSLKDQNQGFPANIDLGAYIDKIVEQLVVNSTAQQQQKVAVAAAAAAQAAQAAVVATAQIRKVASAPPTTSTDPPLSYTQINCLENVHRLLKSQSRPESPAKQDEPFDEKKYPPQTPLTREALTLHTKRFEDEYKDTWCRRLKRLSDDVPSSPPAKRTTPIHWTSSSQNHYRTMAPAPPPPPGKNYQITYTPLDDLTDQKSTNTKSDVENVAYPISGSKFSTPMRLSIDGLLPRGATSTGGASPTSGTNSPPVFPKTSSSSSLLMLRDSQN
Briefly: two-hybrid.

Assay [2] concerns the target LIN-42a (LIN-42^Period isoform, two-hybrid bait) (C. elegans). Briefly: two-hybrid.

Regarding “NHR-85 central hinge region (two-hybrid) (C. elegans) (domain or fragment)”, the binding result in assay [1] was “binds”.

B1: NHR-23^ROR (two-hybrid fusion) (protein, UniProt P41828 1-588)
chain: MACKVTGPNRHLTSVLEMSSFVYWPRSRQQAHNFPMQAVEQKLADATRTLHAKSSLQPSLSIETPKSKENDESGCESSNCMFHPHTIKSEPNFCFAREFKSVPDDFRIGGGDLQMGNNSKRLTCVIDTNRVDMAGILPDNMSFRGLPENKSLLVSAQIEVIPCKVCGDKSSGVHYGVITCEGCKGFFRRSQSSIVNYQCPRQKNCVVDRVNRNRCQYCRLKKCIELGMSRDAVKFGRMSKKQREKVEDEVRMHKELAANGLGYQAIYGDYSPPPSHPSYCFDQSMYGHYPSGTSTPVNGYSIAVAATPTTPMPQNMYGATPSSTNGTQYVAHQATGGSFPSPQVPEEDVATRVIRAFNQQHSSYTTQHGVCNVDPDCIPHLSRAGGWELFARELNPLIQAIIEFAKSIDGFMNLPQETQIQLLKGSVFELSLVFAAMYYNVDAQAVCGERYSVPFACLIAEDDAEMQLIVEVNNTLQEIVHLQPHQSELALLAAGLILEQVSSSHGIGILDTATIATAETLKNALYQSVMPRIGCMEDTIHRIQDVETRIRQTARLHQEALQNFRMSDPTSSEKLPALYKELFTADRP
For the molecule B1, the binding result in assay [2] is “no binding”.

B2: NHR-85^Rev-Erb (two-hybrid fusion) (protein, UniProt Q9XUK7 1-514)
chain: MDLSTSGSLPCHLPLSLLTNLQTPPIDTSFSSPPATSSSSLLSPSPSSAFRPVVPKSLMNPQPAMDTFYMSAIQSLVVSTTNDDQYSEHGALEGSKSLAKDENASTSAGTILCQVCSDKASGFHYGVFACEGCKGFFRRSIQQKITYRACTRAEDCLILRNNRNRCQCCRLKKCLAVGMSRDAVRFGRVPKREKARMFEEMQKTNVQSQRDQIAIQYENLTEVMHKINQAFGTLQATLEKCTGPIYTDRCPITSNFIVIPLKAAIDFANSIPAFLSITQTQRVHLLQNSVFDVMLLASASASTSQHFPPGGLTYDQSSANPIIPQAIQSISARIRQLPPQTVPILTAIAVCQADLLPESQQPMLLAERLWCVLGKLGGIQSLATAPSLLADVRTLRQWHSDRLRQMSQISQHFSQNLLIAPVAAAAPVLLPPAFLSPPASATSTSSSSVKSEFIERHPSIASLLERPRRISSSGAQEPLNLSLPHVRHQVKRDVDSDEQLEEMKVSPVPTTLSE
For B2, the binding entry in assay [2] is on record as “binds”.
